These are yes or no findings as the source states them, for the method shown. In cells and extracts the contact can be indirect. A yes stands for co-enrichment or nearness to the bait. Other partners may have been found.
molecular target: TAP-Kv4.2 (human) (UniProt Q9NZV8); experiment: affinity purification with mass spectrometry; TAP-Kv4.2 expressed by lentivirus in rat hippocampal neurons, harvested at DIV14; weak lysis buffer of the kit (0.1% NP-40); streptavidin resin, then calmodulin resin; gel cut into high and low molecular weight fragments; no MS of the control sample

By UniProt entry, the sequences of proteins in these tests, tags left out.
UniProt Q9NZV8: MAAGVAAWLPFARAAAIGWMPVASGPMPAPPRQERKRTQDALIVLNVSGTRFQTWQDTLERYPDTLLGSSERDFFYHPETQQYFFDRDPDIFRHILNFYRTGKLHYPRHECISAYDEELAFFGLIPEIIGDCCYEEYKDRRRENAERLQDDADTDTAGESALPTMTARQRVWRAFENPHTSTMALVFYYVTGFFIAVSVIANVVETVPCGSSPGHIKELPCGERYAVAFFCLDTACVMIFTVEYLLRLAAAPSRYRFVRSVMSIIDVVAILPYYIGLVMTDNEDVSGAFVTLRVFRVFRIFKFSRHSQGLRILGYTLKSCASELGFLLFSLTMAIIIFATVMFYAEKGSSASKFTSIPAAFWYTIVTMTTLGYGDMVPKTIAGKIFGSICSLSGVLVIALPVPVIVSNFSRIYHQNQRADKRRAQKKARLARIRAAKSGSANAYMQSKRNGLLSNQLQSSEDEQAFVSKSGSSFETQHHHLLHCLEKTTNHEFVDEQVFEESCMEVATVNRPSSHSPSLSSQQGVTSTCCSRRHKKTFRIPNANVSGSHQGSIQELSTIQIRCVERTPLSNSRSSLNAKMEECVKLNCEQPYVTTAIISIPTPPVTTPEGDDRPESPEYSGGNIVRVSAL

binding	Binder
binds	Pfkp (protein, UniProt P47860 1-788) MSDQDSSTSSTSFPKYLEHLSGDGKAIGVLTSGGDAQGMNAAVRAVVRMGIYTGAKVYFIYEGYQGMVDGGSNIVEAKWECVSSILQVGGTIIGSARCQAFRSREGRLKAACNLVRLGITNLCVIGGDGSLTGANLFRKEWSGLLEELAKNGEIDSDTVKKHAYLNVVGMVGSIDNDFCGTDMTIGTDSALHRIIEVVDAIMTTAQSHQRTFVLEVMGRHCGYLALVSALACGADWVFLPESPPEEGWEEEMCLKLSENRARKKRLNIIIVSEGAIDTQNKPITSEKIKELVVTNLGFDTRVTILGHVQRGGTPSAFDRILASRMGVEAVLALLEATPETPACVVSLRGNQAVRLPLMECVQMTQDVQKAMDERRFDEAVKLRGRSFEGNLNTYKRLAIKEPDDKIPKSNCNVAIINVGAPAAGMNAAVRSAVRVGIAEGHKMFAIYDGFDGLANGQIKEIGWGDVGGWTGQGGSILGTKRTLPGKYLEKIAEQMHSKNINALLIIGGFEAYLGLLELAAARNKHEAFCVPMVMVPATVSNNVPGSDFSIGADTALNTITDTCDRIKQSASGTKRRVFIIETMGGYCGYLANMGGLAAGADAAYIFEEQFDIRDLQSNVMHLTEKMKTSIQRGLVLRNENCSVNYTTDFIYQLYSEEGKGVFDCRKNVLGHMQQGGAPSPFDRNFGTKISAKAMEWISAKLKGSHGTGKKFVSDDSICVLGIQKRDLLFKPVAELRKATDFEHRIPKQQWWLKLRPIMKILAKYEASYDMSDVGKLEPVHNHGELSAI
binds	Acsbg1 (protein, UniProt Q924N5 1-721) MPRSSEAGYCCLSRDSNMPDSRDDQQQGASMGTSPDNSQTSSLIDGRTLSKESPSHGLELSAPEKARAASLDASEEALWTTRADGRVRLRLEPFCTQLPYTVHQMFYEALDKYGNLSALGFKRKDKWERISYYQYYLIARKVAKGFLKLGLERAHSVAILGFNSPEWFFSAVGTVFAGGIVTGIYTTSSPEACQYIAHDCRANVIVVDTQKQLEKILKIWKDLPHLKAVVIYQEPPPKKMANVYTMEELIELGQEVPEEALDAIIDTQQPNQCCVLVYTSGTTGNPKGVMLSQDNITWTARYGSQAGDIQPAEVQQEVVVSYLPLSHIAAQIYDLWTGIQWGAQVCFADPDALKGTLVNTLREVEPTSHMGVPRVWEKIMERIQEVAAQSGFIRRKMLLWAMSVTLEQNLTCPSNDLKPFTSRLADYLVLARVRQALGFAKCQKNFYGAAPMTAETQRFFLGLNIRLYAGYGLSESTGPHFMSSPYNYRLYSSGRVVPGCRVKLVNQDADGIGEICLWGRTIFMGYLNMEDKTHEAIDSEGWLHTGDMGRLDDDGFLYITGRLKELIITAGGENVPPVPIEEAVKMELPIISSAMLIGDQRKFLSMLLTLKCTLNPETSEPTDNLTEQAVEFCQRVGSKASTVSEIVGQKDEAVYQAIHEGIQRVNANAAARPYHIQKWAILERDFSISGGELGPTMKLKRLTVLEKYKDIIDSFYQEQKQ
binds	Hsph1 (protein, UniProt Q66HA8 1-858) MSVVGLDVGSQSCYIAVARAGGIETIANEFSDRCTPSVISFGPKNRTIGVAAKNQQITHANNTVSSFKRFHGRAFNDPFIQKEKENLSYDLVPMKNGGVGIKVMYMDEDHLFSVEQITAMLLTKLKETAENNLKKPVTDCVISVPSFFTDAERRSVLDAAQIVGLNCLRLMNDMTAVALNYGIYKQDLPNADEKPRVVVFVDMGHSSFQVSACAFNKGKLKVLGTAFDPFLGGKNFDEKLVEHFCAEFKTKYKLDAKSKIRALLRLHQECEKLKKLMSSNSTDLPLNIECFMNDKDVSAKMNRSQFEELCAELLQKIEVPLHLLMEQTHLKTEEVSAIEIVGGATRIPAVKERIARFFGKDVSTTLNADEAVARGCALQCAILSPAFKVREFSVTDAVPFPISLVWNHDSEETEGVHEVFSRNHAAPFSKVLTFLRRGPFELEAFYSDPQAVPYPEAKIGRFVVQNVSAQKDGEKSKVKVKVRVNTHGIFTISTASMVEKVPTEEEDGSSVEADMECPNQKPAESSDVDKNIQQDNSEAGTQPQVQTDGQQTSQSPPSPELTSEENKIPDADKANEKKVDQPPEAKKPKIKVVNVELPVEANLVWQLGRDLLNMYIETEGKMIMQDKLEKERNDAKNAVEECVYEFRDKLCGPYEKFICEQEHEKFLRLLTETEDWLYEEGEDQAKQAYIDKLEELMKMGTPVKVRFQEAEERPRVLEELGQRLQHYAKIAADFRGKDEKYNHIDESEMKKVEKSVNEVMEWMNNVMNAQAKRSLHQDPVVRTHEISAKVKELNNVCEPVVTQPKPKIESPKLERTPNGPNMDKKEDLEGKSNLGADAPHQNGECHPNEKGSVSMDLD

Source: paper PMC9788671
